Reference: PubChem BioAssay AID1259301 (Sanger Institute, 2017)

Purpose: 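Synthetic lethal pairings of kinase siRNAs with targeted drugs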 (secondary rescreen of primary hits using four separate siRNAs per gene)
Cells: LS180 human colorectal cancer cells
Knock-down reagent: single siRNA against human genes
Conditions: anchor drug BYL719 at 1 µM, cetuximab at 5 µg/ml or trametinib at 10 nM, each against a DMSO vehicle arm
Read-out: 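Replicate mean of viability versus control pool 2 (non-targeting), and for every anchor drug a synergy score assessed against the drug by itself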
Scale: synergy score with BYL719 and synergy score with cetuximab and synergy score with trametinib: higher = stronger synergistic (synthetic lethal) killing; viability with siRNA alone (DMSO): higher = more cells survive
Hit rule: 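Hit if synergy exceeds 0.10 with BYL719, cetuximab or trametinib, any single drug sufficing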
Calls: active = synergy with at least one drug; inactive = no synergy with any drug
The whole screen tested 160 reagents; below is an unselected part. Over the whole deposit, 67 (42%) were called active. 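Calls rest on synergy in any drug arm, not on siRNA-alone viability; rescreen tested four distinct siRNAs for each gene.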 Entries without a mark were called inactive. The numbers tell different reagents against one gene apart. The record does not give: the amount of reagent, the time to read-out.

The first 3 entries, to show the layout:
no.	target	reagent no.	synergy score with BYL719	synergy score with cetuximab	synergy score with trametinib	viability with siRNA alone (DMSO) (fraction of control)
1	STK36 (serine/threonine kinase 36)	1	-0.0784	-0.000172	0.078	0.677
2	STK36 (serine/threonine kinase 36)	2	-0.0168	-0.0745	0.0151	0.924
3	STK36 (serine/threonine kinase 36)	3	-0.178	0.0458	0.0383	0.641

Main list, repeating the preview:
no.	target	reagent no.	synergy score with BYL719	synergy score with cetuximab	synergy score with trametinib	viability with siRNA alone (DMSO) (fraction of control)
1	STK36 (serine/threonine kinase 36)	1	-0.0784	-0.000172	0.078	0.677
2	STK36 (serine/threonine kinase 36)	2	-0.0168	-0.0745	0.0151	0.924
3	STK36 (serine/threonine kinase 36)	3	-0.178	0.0458	0.0383	0.641
4	STK36 (serine/threonine kinase 36)	4	-0.172	-0.0754	0.0833	0.801
5	PLK1 (polo like kinase 1)	1	-0.0688	-0.0349	-0.0344	0.177
6	PLK1 (polo like kinase 1)	2	-0.146	-0.0873	-0.106	0.283
7	PLK1 (polo like kinase 1)	3	-0.0517	-0.0203	-0.0547	0.322
8	PLK1 (polo like kinase 1)	4	-0.052	-0.0487	-0.0155	0.203
9	SYNCRIP (synaptotagmin binding cytoplasmic RNA interacting protein)	1	0.128 (active)	0.2	0.0992	0.693
10	SYNCRIP (synaptotagmin binding cytoplasmic RNA interacting protein)	2	0.00129	-0.0241	0.0633	0.906
11	SYNCRIP (synaptotagmin binding cytoplasmic RNA interacting protein)	3	-0.127	-0.0476	-0.0323	0.513
12	SYNCRIP (synaptotagmin binding cytoplasmic RNA interacting protein)	4	-0.117	-0.0361	-0.0376	0.777
13	MPP3 (MAGUK p55 scaffold protein 3)	1	-0.052	-0.0482	0.03	0.854
14	MPP3 (MAGUK p55 scaffold protein 3)	2	-0.121	-0.0708	0.0199	0.58
15	MPP3 (MAGUK p55 scaffold protein 3)	3	-0.0541 (active)	0.00886	0.287	0.79
16	MPP3 (MAGUK p55 scaffold protein 3)	4	-0.124	0.0273	0.0961	0.656
17	PAK1 (p21 (RAC1) activated kinase 1)	1	-0.117 (active)	0.116	0.119	0.823
18	PAK1 (p21 (RAC1) activated kinase 1)	2	-0.00322 (active)	0.122	0.0561	0.687
19	PAK1 (p21 (RAC1) activated kinase 1)	3	-0.00384 (active)	0.1	0.0543	0.58
20	PAK1 (p21 (RAC1) activated kinase 1)	4	-0.197	-0.0855	0.0782	0.7
21	PRAG1 (PEAK1 related, kinase-activating pseudokinase 1)	1	0.099	-0.182	0.0376	0.571
22	PRAG1 (PEAK1 related, kinase-activating pseudokinase 1)	2	0.424 (active)	0.179	0.212	0.842
23	PRAG1 (PEAK1 related, kinase-activating pseudokinase 1)	3	-0.0104	-0.0142	0.0304	0.664
24	PRAG1 (PEAK1 related, kinase-activating pseudokinase 1)	4	-0.082	0.044	-0.0718	0.743
25	PIK3CA	1	-0.105 (active)	0.0474	0.138	0.545
26	PIK3CA	2	-0.113 (active)	0.146	0.135	0.548
27	PIK3CA	3	-0.194 (active)	-0.0554	0.112	0.57
28	PIK3CA	4	-0.358	-0.0956	0.0718	0.58
29	KCNH8 (potassium voltage-gated channel subfamily H member 8)	1	-0.13	-0.0566	-0.0289	0.561
30	KCNH8 (potassium voltage-gated channel subfamily H member 8)	2	0.0637 (active)	0.123	0.0975	0.58
31	KCNH8 (potassium voltage-gated channel subfamily H member 8)	3	-0.152	0	-0.0476	0.805
32	KCNH8 (potassium voltage-gated channel subfamily H member 8)	4	-0.155	-0.0271	0.0185	0.691
33	CDKN2D (cyclin dependent kinase inhibitor 2D)	1	-0.276	-0.0477	-0.00195	0.495
34	CDKN2D (cyclin dependent kinase inhibitor 2D)	2	-0.00243 (active)	0.141	0.17	0.652
35	CDKN2D (cyclin dependent kinase inhibitor 2D)	3	-0.19 (active)	0.103	0.214	1
36	CDKN2D (cyclin dependent kinase inhibitor 2D)	4	-0.0236 (active)	0.0864	0.101	0.491
37	EPHA6 (EPH receptor A6)	1	-0.0193	0.0388	-0.00427	0.644
38	EPHA6 (EPH receptor A6)	2	-0.076	0.0159	-0.0655	0.315
39	EPHA6 (EPH receptor A6)	3	-0.0228	0.0268	-0.00285	0.434
40	EPHA6 (EPH receptor A6)	4	-0.183	-0.222	-0.0255	0.657
41	IRAK3 (interleukin 1 receptor associated kinase 3)	1	0.0992 (active)	-0.0071	0.107	0.667
42	IRAK3 (interleukin 1 receptor associated kinase 3)	2	-0.0684	0.0423	-0.0033	0.854
43	IRAK3 (interleukin 1 receptor associated kinase 3)	3	-0.161	-0.05	-0.0869	0.445
44	IRAK3 (interleukin 1 receptor associated kinase 3)	4	0.0528	-0.0436	0.0782	0.79
45	GUCY2D (guanylate cyclase 2D, retinal)	1	-0.157	-0.2	-0.0843	0.665
46	GUCY2D (guanylate cyclase 2D, retinal)	2	-0.0477 (active)	0.143	0.19	0.745
47	GUCY2D (guanylate cyclase 2D, retinal)	3	-0.0869 (active)	-0.175	0.137	0.598
48	GUCY2D (guanylate cyclase 2D, retinal)	4	-0.167 (active)	-0.115	0.103	0.925
